Assay results published in the supplement of paper PMC10849652.
The other results are listed elsewhere or left out.

Sequences of proteins named here, by UniProt entry; tags and fusion partners are left off. A change or cut given only in a name is not applied to a line headed by its entry.
UniProt O94916: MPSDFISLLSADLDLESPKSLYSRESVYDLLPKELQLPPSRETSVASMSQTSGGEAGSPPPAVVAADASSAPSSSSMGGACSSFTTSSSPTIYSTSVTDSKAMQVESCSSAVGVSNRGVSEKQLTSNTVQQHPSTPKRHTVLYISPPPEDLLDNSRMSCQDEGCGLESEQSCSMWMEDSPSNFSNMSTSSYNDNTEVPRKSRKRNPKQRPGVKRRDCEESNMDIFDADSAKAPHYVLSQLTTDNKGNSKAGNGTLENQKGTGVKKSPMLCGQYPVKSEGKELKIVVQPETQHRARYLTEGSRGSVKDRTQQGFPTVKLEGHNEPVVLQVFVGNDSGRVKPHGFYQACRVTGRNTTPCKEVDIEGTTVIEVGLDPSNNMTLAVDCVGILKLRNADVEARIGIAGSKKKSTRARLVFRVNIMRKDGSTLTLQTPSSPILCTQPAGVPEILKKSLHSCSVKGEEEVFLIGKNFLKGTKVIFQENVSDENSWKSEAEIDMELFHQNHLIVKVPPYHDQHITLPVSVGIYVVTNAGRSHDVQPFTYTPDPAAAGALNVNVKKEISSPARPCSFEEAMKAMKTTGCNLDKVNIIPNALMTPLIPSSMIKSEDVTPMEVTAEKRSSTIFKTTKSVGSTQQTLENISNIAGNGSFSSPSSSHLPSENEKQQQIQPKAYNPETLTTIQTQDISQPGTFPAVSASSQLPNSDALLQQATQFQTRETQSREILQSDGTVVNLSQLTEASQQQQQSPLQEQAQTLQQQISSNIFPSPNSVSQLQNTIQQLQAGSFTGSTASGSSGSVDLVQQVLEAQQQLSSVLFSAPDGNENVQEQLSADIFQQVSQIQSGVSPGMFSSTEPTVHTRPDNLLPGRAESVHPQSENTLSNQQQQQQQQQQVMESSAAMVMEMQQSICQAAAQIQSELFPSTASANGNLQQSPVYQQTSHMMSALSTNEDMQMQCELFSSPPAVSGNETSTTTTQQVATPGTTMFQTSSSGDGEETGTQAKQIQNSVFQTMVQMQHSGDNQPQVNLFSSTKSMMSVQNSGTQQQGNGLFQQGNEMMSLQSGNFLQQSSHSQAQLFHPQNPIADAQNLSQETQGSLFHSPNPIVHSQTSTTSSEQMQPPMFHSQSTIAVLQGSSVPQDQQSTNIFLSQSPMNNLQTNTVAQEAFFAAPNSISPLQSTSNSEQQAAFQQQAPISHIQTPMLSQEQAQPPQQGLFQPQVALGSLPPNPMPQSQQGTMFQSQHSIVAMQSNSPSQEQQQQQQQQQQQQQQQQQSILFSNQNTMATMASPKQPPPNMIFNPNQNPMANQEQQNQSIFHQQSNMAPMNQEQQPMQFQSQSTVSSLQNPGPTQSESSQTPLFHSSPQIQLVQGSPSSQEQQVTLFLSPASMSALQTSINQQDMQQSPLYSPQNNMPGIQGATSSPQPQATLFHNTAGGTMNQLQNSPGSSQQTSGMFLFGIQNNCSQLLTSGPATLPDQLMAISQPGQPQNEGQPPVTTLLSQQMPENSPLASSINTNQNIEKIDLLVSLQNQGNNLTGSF
UniProt O43677, whole entry, looked up: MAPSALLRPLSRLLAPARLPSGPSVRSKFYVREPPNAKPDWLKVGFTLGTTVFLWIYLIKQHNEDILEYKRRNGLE
UniProt P30414: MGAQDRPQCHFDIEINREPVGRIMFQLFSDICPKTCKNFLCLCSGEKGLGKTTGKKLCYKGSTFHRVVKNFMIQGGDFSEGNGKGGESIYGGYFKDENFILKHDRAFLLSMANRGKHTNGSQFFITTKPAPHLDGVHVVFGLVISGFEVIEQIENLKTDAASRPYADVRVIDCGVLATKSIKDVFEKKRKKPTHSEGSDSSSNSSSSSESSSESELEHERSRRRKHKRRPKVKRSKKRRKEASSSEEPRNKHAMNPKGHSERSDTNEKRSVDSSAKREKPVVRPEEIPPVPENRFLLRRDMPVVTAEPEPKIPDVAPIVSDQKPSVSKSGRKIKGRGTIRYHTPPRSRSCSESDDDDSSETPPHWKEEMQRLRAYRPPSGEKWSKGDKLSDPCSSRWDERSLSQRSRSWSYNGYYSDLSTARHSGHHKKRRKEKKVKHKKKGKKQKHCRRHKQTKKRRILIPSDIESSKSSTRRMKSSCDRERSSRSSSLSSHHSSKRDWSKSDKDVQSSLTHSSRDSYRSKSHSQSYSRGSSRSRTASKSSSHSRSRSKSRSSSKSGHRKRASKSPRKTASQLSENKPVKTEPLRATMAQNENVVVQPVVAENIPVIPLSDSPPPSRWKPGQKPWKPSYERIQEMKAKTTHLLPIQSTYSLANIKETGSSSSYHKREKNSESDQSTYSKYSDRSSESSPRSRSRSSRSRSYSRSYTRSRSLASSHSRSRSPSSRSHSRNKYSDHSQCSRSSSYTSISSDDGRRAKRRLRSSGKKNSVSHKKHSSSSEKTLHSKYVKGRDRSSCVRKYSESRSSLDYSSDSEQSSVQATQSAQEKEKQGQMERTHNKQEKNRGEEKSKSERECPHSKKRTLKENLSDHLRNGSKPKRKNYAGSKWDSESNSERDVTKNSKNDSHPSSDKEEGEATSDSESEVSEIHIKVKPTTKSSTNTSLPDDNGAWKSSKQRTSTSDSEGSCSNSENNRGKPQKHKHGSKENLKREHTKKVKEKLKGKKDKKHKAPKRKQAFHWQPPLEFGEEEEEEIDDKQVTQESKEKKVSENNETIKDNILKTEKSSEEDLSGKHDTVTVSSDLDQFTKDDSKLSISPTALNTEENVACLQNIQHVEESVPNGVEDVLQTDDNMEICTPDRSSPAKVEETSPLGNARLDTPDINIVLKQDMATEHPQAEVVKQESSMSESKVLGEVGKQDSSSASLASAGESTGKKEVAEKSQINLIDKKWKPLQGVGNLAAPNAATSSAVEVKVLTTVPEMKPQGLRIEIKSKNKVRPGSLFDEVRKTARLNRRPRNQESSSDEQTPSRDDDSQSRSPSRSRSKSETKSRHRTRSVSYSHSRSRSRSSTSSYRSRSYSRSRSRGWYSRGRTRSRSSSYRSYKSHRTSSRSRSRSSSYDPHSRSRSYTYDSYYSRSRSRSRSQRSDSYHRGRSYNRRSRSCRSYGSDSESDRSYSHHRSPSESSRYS
UniProt Q9C000: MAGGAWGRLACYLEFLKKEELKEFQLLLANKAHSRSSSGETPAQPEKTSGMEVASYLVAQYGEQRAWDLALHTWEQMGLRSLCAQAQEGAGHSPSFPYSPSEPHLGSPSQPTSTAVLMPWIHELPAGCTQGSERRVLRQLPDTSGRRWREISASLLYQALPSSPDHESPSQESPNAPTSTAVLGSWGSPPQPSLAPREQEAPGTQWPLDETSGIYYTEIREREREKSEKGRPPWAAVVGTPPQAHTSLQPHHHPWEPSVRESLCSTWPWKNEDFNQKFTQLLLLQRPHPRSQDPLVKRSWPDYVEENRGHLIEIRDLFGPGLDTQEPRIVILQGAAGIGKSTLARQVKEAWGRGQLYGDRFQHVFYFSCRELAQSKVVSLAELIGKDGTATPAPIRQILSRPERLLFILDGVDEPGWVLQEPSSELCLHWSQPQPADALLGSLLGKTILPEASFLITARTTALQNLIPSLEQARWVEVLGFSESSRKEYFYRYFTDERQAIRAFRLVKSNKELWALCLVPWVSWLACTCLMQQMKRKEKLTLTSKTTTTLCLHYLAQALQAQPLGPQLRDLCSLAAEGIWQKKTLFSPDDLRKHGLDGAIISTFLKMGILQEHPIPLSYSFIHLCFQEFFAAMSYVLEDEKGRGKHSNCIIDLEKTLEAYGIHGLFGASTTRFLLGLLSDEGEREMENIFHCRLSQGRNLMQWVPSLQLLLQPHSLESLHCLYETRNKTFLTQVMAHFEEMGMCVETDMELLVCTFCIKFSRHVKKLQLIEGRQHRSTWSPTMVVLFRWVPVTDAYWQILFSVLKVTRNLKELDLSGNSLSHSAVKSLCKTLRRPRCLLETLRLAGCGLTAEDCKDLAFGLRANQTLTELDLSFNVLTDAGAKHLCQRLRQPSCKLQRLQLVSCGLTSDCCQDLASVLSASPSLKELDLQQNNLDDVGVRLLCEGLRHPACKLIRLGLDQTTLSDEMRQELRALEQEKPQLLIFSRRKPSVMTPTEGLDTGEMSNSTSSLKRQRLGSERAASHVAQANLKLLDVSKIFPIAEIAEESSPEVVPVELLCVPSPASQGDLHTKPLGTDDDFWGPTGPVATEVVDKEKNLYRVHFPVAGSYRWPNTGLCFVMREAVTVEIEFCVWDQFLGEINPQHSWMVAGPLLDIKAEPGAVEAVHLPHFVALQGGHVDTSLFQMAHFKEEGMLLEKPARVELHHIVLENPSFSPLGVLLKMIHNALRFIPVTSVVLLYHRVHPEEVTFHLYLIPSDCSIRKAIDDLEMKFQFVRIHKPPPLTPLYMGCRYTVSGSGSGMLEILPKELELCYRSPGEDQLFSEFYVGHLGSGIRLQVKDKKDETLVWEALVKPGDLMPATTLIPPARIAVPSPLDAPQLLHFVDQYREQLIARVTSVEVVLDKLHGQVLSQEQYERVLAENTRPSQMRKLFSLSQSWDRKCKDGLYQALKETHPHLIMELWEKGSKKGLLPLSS
UniProt Q86UT6, whole entry, looked up: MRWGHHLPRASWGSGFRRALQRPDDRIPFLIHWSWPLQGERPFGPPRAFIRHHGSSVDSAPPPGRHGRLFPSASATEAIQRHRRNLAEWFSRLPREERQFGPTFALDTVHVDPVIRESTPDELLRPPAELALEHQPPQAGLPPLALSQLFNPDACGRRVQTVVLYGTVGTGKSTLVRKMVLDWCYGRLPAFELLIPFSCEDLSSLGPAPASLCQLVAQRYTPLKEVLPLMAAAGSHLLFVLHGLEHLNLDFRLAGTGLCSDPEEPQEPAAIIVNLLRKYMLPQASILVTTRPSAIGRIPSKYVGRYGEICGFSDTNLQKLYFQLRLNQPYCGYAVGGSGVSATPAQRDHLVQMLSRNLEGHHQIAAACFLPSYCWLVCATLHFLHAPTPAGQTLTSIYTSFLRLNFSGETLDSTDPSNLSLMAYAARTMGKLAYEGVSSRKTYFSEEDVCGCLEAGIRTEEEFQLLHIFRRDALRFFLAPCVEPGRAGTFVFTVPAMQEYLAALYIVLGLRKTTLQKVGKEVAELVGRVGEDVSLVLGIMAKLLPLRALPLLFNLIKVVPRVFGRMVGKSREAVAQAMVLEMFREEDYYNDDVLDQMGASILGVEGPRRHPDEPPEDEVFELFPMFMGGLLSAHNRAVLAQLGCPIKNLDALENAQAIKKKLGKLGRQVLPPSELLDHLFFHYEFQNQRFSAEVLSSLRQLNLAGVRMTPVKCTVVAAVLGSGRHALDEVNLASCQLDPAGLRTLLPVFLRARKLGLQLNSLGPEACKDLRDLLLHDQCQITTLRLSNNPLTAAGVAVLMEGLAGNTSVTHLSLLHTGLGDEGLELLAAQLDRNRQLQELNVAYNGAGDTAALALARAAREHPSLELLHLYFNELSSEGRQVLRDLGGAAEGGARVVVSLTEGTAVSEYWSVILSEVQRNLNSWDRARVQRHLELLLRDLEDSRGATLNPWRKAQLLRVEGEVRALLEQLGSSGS
UniProt Q9UN36: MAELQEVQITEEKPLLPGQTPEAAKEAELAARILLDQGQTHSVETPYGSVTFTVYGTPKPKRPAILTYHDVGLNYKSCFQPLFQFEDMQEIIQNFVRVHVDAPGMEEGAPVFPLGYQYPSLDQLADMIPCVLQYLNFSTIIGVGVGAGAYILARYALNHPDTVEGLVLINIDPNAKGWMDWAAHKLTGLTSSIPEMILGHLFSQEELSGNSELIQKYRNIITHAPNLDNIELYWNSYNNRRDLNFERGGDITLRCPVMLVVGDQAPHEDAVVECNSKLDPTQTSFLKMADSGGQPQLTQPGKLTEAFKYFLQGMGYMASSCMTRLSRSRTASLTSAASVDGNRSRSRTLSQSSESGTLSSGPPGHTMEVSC
UniProt Q6ZUT1: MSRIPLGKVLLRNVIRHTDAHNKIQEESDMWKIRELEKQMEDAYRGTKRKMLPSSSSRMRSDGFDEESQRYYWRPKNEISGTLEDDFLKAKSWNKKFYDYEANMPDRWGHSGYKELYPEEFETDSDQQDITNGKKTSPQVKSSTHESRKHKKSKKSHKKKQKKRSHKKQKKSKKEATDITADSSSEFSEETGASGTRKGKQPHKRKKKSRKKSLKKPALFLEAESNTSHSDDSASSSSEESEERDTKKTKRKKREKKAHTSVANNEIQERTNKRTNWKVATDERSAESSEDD
UniProt Q9NV92: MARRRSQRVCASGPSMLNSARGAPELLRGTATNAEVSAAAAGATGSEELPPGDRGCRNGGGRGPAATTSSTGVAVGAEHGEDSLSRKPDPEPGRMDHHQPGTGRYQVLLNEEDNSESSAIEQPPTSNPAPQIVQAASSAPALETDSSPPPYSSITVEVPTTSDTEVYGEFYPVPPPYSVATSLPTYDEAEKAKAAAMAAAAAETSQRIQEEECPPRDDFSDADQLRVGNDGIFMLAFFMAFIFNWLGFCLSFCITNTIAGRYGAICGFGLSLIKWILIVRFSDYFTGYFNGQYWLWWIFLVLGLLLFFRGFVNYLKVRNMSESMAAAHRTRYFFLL

Key:
Experiment in all cases: log2 fold change, soluble protein after heating vs DMSO (PISA); higher = thermal stabilisation; K562 lysate, 10 uM; active = over 0.2 and 3.5 SD of the protein, either way, in both replicates (recomputed)
pictilisib = compound: CS(=O)(=O)N1CCN(Cc2cc3nc(-c4cccc5[nH]ncc45)nc(N4CCOCC4)c3s2)CC1 [pictilisib]
Outline: (§1)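 K562 pellets were dounce-homogenised in PBS pH 7.4 with 1 mM MgCl2, and the crude extract at 1 mg/mL protein was treated with 10 μM compound for 30 min. Aliquots were heated for 3 min across 48°C-58°C, pooled, and brought to 0.5% NP-40 at 4°C; soluble protein was the supernatant after 21,000xg for 90 min. Soluble protein was quantified by TMTpro 16plex LC-MS/MS with channel sums equalised, and reported as log2 fold change in thermal stability against DMSO controls, with values from duplicates.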

crizotinib = compound: C[C@@H](Oc1cc(-c2cnn(C3CCNCC3)c2)cnc1N)c1c(Cl)ccc(F)c1Cl [crizotinib]
Outline: as §1

doramapimod = compound: Cc1ccc(-n2nc(C(C)(C)C)cc2NC(=O)Nc2ccc(OCCN3CCOCC3)c3ccccc23)cc1 [doramapimod]
Outline: as §1

bafetinib = compound: Cc1ccc(NC(=O)c2ccc(CN3CC[C@H](N(C)C)C3)c(C(F)(F)F)c2)cc1Nc1nccc(-c2cncnc2)n1 [bafetinib]
Outline: as §1

quisinostat = compound: Cn1cc(CNCC2CCN(c3ncc(C(=O)NO)cn3)CC2)c2ccccc21 [quisinostat]
Outline: as §1

[1] = compound: NC(=O)Nc1cc(-c2cccc(F)c2)sc1C(=O)N[C@H]1CCCNC1
Outline: as §1

[2] = compound: C[C@H](C1=CC=C(C=C1)C(=O)NC2=C3C=CNC3=NC=C2)N
Outline: as §1

gandotinib = compound: Cc1cc(Nc2cc(CN3CCOCC3)c3nc(C)c(Cc4ccc(Cl)cc4F)n3n2)n[nH]1 [gandotinib]
Outline: as §1

[3] = compound: Cc1cccc(CC(=O)N2CCc3c2ccc(-c2cn(C)c4ncnc(N)c24)c3F)n1
Outline: as §1

lapatinib = compound: CS(=O)(=O)CCNCc1ccc(-c2ccc3ncnc(Nc4ccc(OCc5cccc(F)c5)c(Cl)c4)c3c2)o1 [lapatinib]
Outline: as §1

duvelisib = compound: C[C@H](Nc1ncnc2nc[nH]c12)c1cc2cccc(Cl)c2c(=O)n1-c1ccccc1 [duvelisib]
Outline: as §1

tozasertib = compound: Cc1cc(Nc2cc(N3CCN(C)CC3)nc(Sc3ccc(NC(=O)C4CC4)cc3)n2)n[nH]1 [tozasertib]
Outline: as §1

nilotinib = compound: Cc1cn(-c2cc(NC(=O)c3ccc(C)c(Nc4nccc(-c5cccnc5)n4)c3)cc(C(F)(F)F)c2)cn1 [nilotinib]
Outline: as §1

[4] = compound: Cc1nc(Nc2n[nH]c3c2CN(C(=O)N[C@H](CN(C)C)c2ccccc2)C3(C)C)c2sccc2n1
Outline: as §1

dasatinib = compound: Cc1nc(Nc2ncc(C(=O)Nc3c(C)cccc3Cl)s2)cc(N2CCN(CCO)CC2)n1 [dasatinib]
Outline: as §1

[5] = compound: Cc1ncc(-c2ccnc(Nc3ccc(S(C)(=O)=O)cc3)n2)n1C(C)C
Outline: as §1

[6] = compound: Cn1cc(-c2ccc3c(c2)CCN3C(=O)Cc2cccc(C(F)(F)F)c2)c2c(N)ncnc21
Outline: as §1

tipifarnib = compound: Cn1cncc1[C@@](N)(c1ccc(Cl)cc1)c1ccc2c(c1)c(-c1cccc(Cl)c1)cc(=O)n2C [tipifarnib]
Outline: as §1

[7] = compound: NC(=O)c1cnc(N[C@@H]2CCCC[C@@H]2N)nc1Nc1cccc(-n2nccn2)c1
Outline: as §1

[8] = compound: NC1(c2ccc(-c3nc4ccn5c(=O)[nH]nc5c4cc3-c3ccccc3)cc2)CCC1
Outline: as §1

Measured: log2 fold change

NFAT5 isoform 4 (UniProt O94916)
inactive: pictilisib -0.138 | crizotinib -0.028 | doramapimod -0.158 | bafetinib -0.053 | quisinostat 0.014 | [1] 0.012

NDUFA7 (UniProt M0R0N0)
inactive: pictilisib 0.045 | [2] -0.965 | gandotinib 0.238 | bafetinib -0.181 | [3] 0.495

NHLRC3 (UniProt Q5JS37)
inactive: lapatinib -0.046 | crizotinib 0.023 | [2] 0.01 | duvelisib 0 | gandotinib 0.191 | tozasertib -0.096 | doramapimod 0.039 | [3] 0.139 | nilotinib -0.02 | [4] -0.033 | dasatinib 0.013 | [5] 0 | [6] 0.043 | quisinostat -0.096 | tipifarnib 0.015 | [1] 0.005 | [7] -0.028 | [8] -0.038

NDUFC1 (UniProt O43677)
inactive: duvelisib -0.183 | tozasertib 0.029 | dasatinib 0.033 | [6] -0.01 | [8] 0.066

NEK5 (UniProt Q6P3R8)
inactive: lapatinib -0.067 | [2] -0.151 | duvelisib 0.114 | gandotinib 0.099 | tozasertib 0.11 | [3] 0.019 | nilotinib -0.105 | [4] -0.011 | dasatinib -0.163 | [5] -0.012 | [6] -0.009 | tipifarnib -0.034 | [7] 0.053

NKTR (UniProt P30414)
inactive: lapatinib -0.015 | pictilisib -0.08 | [2] -0.44 | duvelisib 0.168 | gandotinib 0.358 | tozasertib -0.1 | bafetinib -0.178 | [3] 0.431 | nilotinib 0.009 | [4] -0.016 | dasatinib -0.157 | [5] 0.046 | [6] -0.05 | tipifarnib 0.003 | [7] -0.043 | [8] -0.1

NLRP1 (UniProt Q9C000)
inactive: crizotinib 0.236 | duvelisib -0.584 | tozasertib -0.07 | doramapimod -0.199 | dasatinib -0.045 | [6] -0.133 | quisinostat 0.311 | [1] 0.128 | [8] 0.25

Two neighbouring entries out of the list so far:
NKTR (UniProt P30414)
inactive: lapatinib -0.015 | pictilisib -0.08 | [2] -0.44 | duvelisib 0.168 | gandotinib 0.358 | tozasertib -0.1 | bafetinib -0.178 | [3] 0.431 | nilotinib 0.009 | [4] -0.016 | dasatinib -0.157 | [5] 0.046 | [6] -0.05 | tipifarnib 0.003 | [7] -0.043 | [8] -0.1

NLRP1 (UniProt Q9C000)
inactive: crizotinib 0.236 | duvelisib -0.584 | tozasertib -0.07 | doramapimod -0.199 | dasatinib -0.045 | [6] -0.133 | quisinostat 0.311 | [1] 0.128 | [8] 0.25

Remaining list, next part.

NLRX1 (UniProt Q86UT6)
inactive: [2] -0.152 | gandotinib -0.003 | tozasertib -0.128 | [3] 0.076 | [8] 0.005

NIPA1 (UniProt Q7RTP0)
inactive: lapatinib -0.065 | pictilisib -0.015 | crizotinib -0.241 | [2] 0.04 | gandotinib 0.134 | doramapimod -0.062 | bafetinib 0.025 | [3] -0.064 | nilotinib 0.006 | [4] 0.064 | [5] -0.072 | quisinostat -0.217 | tipifarnib 0.033 | [1] 0.029 | [7] -0.034 | [8] -0.03

NDRG2 isoform 6 (UniProt Q9UN36)
inactive: lapatinib 0.087 | duvelisib 0.016 | tozasertib -0.018 | dasatinib 0.124 | [6] 0.025 | [7] -0.046 | [8] 0.04

NKAPD1 isoform 2 (UniProt Q6ZUT1)
inactive: nilotinib 0.038 | [4] 0.23 | [5] 0.147 | tipifarnib -0.137 | [8] -0.105

NDFIP2 (UniProt Q9NV92)
inactive: crizotinib -0.073 | [2] 0.043 | gandotinib -0.112 | doramapimod -0.095 | [3] 0.23 | nilotinib -0.069 | [4] 0.148 | [5] -0.057 | quisinostat 0.146 | tipifarnib 0.165 | [1] -0.063

NECTIN2 isoform 2 (UniProt Q92692)
inactive: lapatinib -0.109 | crizotinib -0.05 | [2] 0.077 | duvelisib 0.138 | gandotinib 0.015 | tozasertib 0.062 | doramapimod 0.088 | [3] -0.054 | nilotinib -0.09 | [4] -0.048 | dasatinib 0.091 | [5] -0.03 | [6] 0.005 | quisinostat -0.095 | tipifarnib -0.139 | [1] 0.012 | [7] 0.014 | [8] -0.115
